Measurements reported in PubChem BioAssay AID504774 (Drosophila RNAi Screening Center, 2011).
In all, the deposit lists about 23,000 reagents; below is a random part of those that have a named target and a result. 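Values are quantile-normalised luminescence on an arbitrary scale; higher means more cells surviving MMS.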 The numbers tell different reagents against one gene apart.

- Screen: 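Knock-downs that shift viability of MMS-exposed cells relative to untreated ones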 (primary screen)
- Cells: Drosophila Kc167 cells
- Knock-down reagent: long dsRNA against Drosophila genes, about 0.25 µg dsRNA per well
- Timing: about 6 days: 3 days knock-down, then 3 days with or without MMS
- Challenge: methyl methanesulphonate 0.004% (w/v) for 3 days after knock-down
- Read-out: 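ATP-dependent luminescence as a measure of live cells in MMS-exposed wells, quantile normalised within each plate, with replicate values also given as a mean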
- Reading the numbers: mean viability with MMS and viability with MMS: higher = more surviving cells after MMS

| Gene | reagent | mean viability with MMS | viability with MMS, replicate 1 | viability with MMS, replicate 2 |
| --- | --- | --- | --- | --- |
| Sbp2 (SECIS-binding protein 2) | 1 | 3.60e6 | 4.10e6 | 4.06e6 |
| loj (logjam) | 1 | 3.60e6 | 4.18e6 | 3.98e6 |
| Nca (Neurocalcin) | 1 | 3.52e6 | 3.94e6 | 4.04e6 |
| CG14324 | 1 | 3.26e6 | 3.77e6 | 3.61e6 |
| Hrb98DE (Heterogeneous nuclear ribonucleoprotein at 98DE) | 1 | 3.42e6 | 3.88e6 | 3.89e6 |
| RpL27A (Ribosomal protein L27A) | 1 | 2.71e6 | 3.25e6 | 3.25e6 |
| Rbp9 (RNA-binding protein 9) | 1 | 3.60e6 | 4.18e6 | 3.95e6 |
| Rbp9 (RNA-binding protein 9) | 2 | 3.47e6 | 4.00e6 | 3.80e6 |
| Tsp97E (Tetraspanin 97E) | 1 | 3.76e6 | 4.43e6 | 4.08e6 |
| CG17270 | 1 | 3.61e6 | 4.00e6 | 4.16e6 |
| RunxA (Runt related A) | 1 | 3.54e6 | 4.05e6 | 3.98e6 |
| RunxA (Runt related A) | 2 | 3.00e6 | 3.65e6 | 3.69e6 |
| RunxA (Runt related A) | 3 | 3.67e6 | 4.04e6 | 4.21e6 |
| RunxA (Runt related A) | 4 | 3.74e6 | 4.19e6 | 4.18e6 |
| ox (oxen) | 1 | 3.33e6 | 3.67e6 | 3.76e6 |
| CG8204 | 1 | 3.49e6 | 4.01e6 | 3.98e6 |
| CG14439 | 1 | 3.67e6 | 4.25e6 | 4.07e6 |
| CG7049 | 1 | 3.56e6 | 4.02e6 | 4.04e6 |
| mge (maggie) | 1 | 3.51e6 | 3.97e6 | 3.98e6 |
| LysP (Lysozyme P) | 1 | 3.55e6 | 4.02e6 | 4.03e6 |
| Nulp1 (Nuclear localized protein 1) | 1 | 3.73e6 | 4.28e6 | 4.19e6 |
| CG11722 | 1 | 3.48e6 | 3.89e6 | 4.03e6 |
| Octalpha2R (alpha2-adrenergic-like octopamine receptor) | 1 | 3.39e6 | 3.92e6 | 3.75e6 |
| Octalpha2R (alpha2-adrenergic-like octopamine receptor) | 2 | 3.52e6 | 4.12e6 | 3.85e6 |
| Vti1b (Vesicle transport through interaction with t-SNAREs 1b) | 1 | 3.85e6 | 4.19e6 | 4.39e6 |
| Vti1b (Vesicle transport through interaction with t-SNAREs 1b) | 2 | 3.46e6 | 3.98e6 | 3.88e6 |
| mnd (minidiscs) | 1 | 3.44e6 | 3.90e6 | 3.85e6 |
| CG5861 | 1 | 3.35e6 | 3.77e6 | 3.80e6 |
| Vps13D (Vacuolar protein sorting 13D) | 1 | 3.55e6 | 4.13e6 | 3.92e6 |
| Vps13D (Vacuolar protein sorting 13D) | 2 | 3.76e6 | 4.34e6 | 4.10e6 |
| mRpL50 (mitochondrial ribosomal protein L50) | 1 | 3.62e6 | 4.09e6 | 4.14e6 |

10 entries already listed, ordered by “mean viability with MMS”, low to high.
| Gene | reagent | mean viability with MMS | viability with MMS, replicate 1 | viability with MMS, replicate 2 |
| --- | --- | --- | --- | --- |
| ox (oxen) | 1 | 3.33e6 | 3.67e6 | 3.76e6 |
| Octalpha2R (alpha2-adrenergic-like octopamine receptor) | 1 | 3.39e6 | 3.92e6 | 3.75e6 |
| CG11722 | 1 | 3.48e6 | 3.89e6 | 4.03e6 |
| CG8204 | 1 | 3.49e6 | 4.01e6 | 3.98e6 |
| mge (maggie) | 1 | 3.51e6 | 3.97e6 | 3.98e6 |
| LysP (Lysozyme P) | 1 | 3.55e6 | 4.02e6 | 4.03e6 |
| CG7049 | 1 | 3.56e6 | 4.02e6 | 4.04e6 |
| CG14439 | 1 | 3.67e6 | 4.25e6 | 4.07e6 |
| Nulp1 (Nuclear localized protein 1) | 1 | 3.73e6 | 4.28e6 | 4.19e6 |
| RunxA (Runt related A) | 4 | 3.74e6 | 4.19e6 | 4.18e6 |

Next entries follow.
| Gene | reagent | mean viability with MMS | viability with MMS, replicate 1 | viability with MMS, replicate 2 |
| --- | --- | --- | --- | --- |
| blo (bloated) | 1 | 3.59e6 | 4.11e6 | 4.04e6 |
| CG17196 | 1 | 3.65e6 | 3.93e6 | 4.35e6 |
| Dlg5 (Discs large 5) | 1 | 3.41e6 | 3.94e6 | 3.73e6 |
| CG33322 | 1 | 3.54e6 | 4.03e6 | 3.99e6 |
| Lip3 (Lipase 3) | 1 | 3.77e6 | 4.60e6 | 4.14e6 |
| Leash | 1 | 3.58e6 | 4.14e6 | 3.96e6 |
| prt (portabella) | 1 | 3.51e6 | 3.97e6 | 3.99e6 |
| CG5828 | 1 | 3.34e6 | 3.64e6 | 3.86e6 |
| Cpr47Eb (Cuticular protein 47Eb) | 1 | 3.52e6 | 3.90e6 | 3.99e6 |
| obst-B (obstructor-B) | 1 | 3.71e6 | 4.27e6 | 4.20e6 |
| CG34326 (retired record) | 1 | 3.60e6 | 4.11e6 | 4.02e6 |
| Akr1B (Aldo-keto reductase 1B) | 1 | 3.50e6 | 3.95e6 | 3.99e6 |
| rumi | 1 | 3.50e6 | 3.94e6 | 3.99e6 |
| hiro (highroad) | 1 | 3.32e6 | 3.81e6 | 3.76e6 |
| GCS2beta (Glucosidase 2 beta subunit) | 1 | 1.50e6 | 3.76e6 | 3.60e6 |
| Trm7-34 (tRNA methyltransferase 7-34) | 1 | 3.46e6 | 3.91e6 | 3.95e6 |
| ref(2)P (refractory to sigma P) | 1 | 3.50e6 | 3.92e6 | 4.00e6 |
| IleRS-m (Isoleucyl-tRNA synthetase, mitochondrial) | 1 | 3.61e6 | 4.21e6 | 3.97e6 |
| SA2 (Stromalin 2) | 1 | 3.69e6 | 4.12e6 | 4.18e6 |
| Sptr (Sepiapterin reductase) | 1 | 3.74e6 | 4.23e6 | 4.19e6 |
| Rbp1-like | 1 | 3.74e6 | 4.22e6 | 4.21e6 |
| Rbp1-like | 2 | 3.71e6 | 4.15e6 | 4.17e6 |
| vn (vein) | 1 | 3.26e6 | 3.64e6 | 3.66e6 |
| vn (vein) | 2 | 3.75e6 | 4.27e6 | 4.23e6 |
| Uhg3 (U snoRNA host gene 3) | 1 | 3.59e6 | 4.05e6 | 4.04e6 |
| holn1 (hole-in-one) | 1 | 3.56e6 | 4.03e6 | 4.07e6 |
| holn1 (hole-in-one) | 2 | 3.53e6 | 4.01e6 | 4.01e6 |
| bnk (bottleneck) | 1 | 3.52e6 | 3.99e6 | 3.97e6 |
| Oscillin | 1 | 3.55e6 | 3.84e6 | 4.20e6 |
| FoxP (Forkhead box P) | 1 | 3.55e6 | 4.07e6 | 3.99e6 |
| FoxP (Forkhead box P) | 2 | 3.47e6 | 3.94e6 | 3.94e6 |
| CG33769 | 1 | 3.39e6 | 3.89e6 | 3.74e6 |
| Obp19a (Odorant-binding protein 19a) | 1 | 3.70e6 | 4.20e6 | 4.11e6 |
| Reph (Regulator of eph expression) | 1 | 3.82e6 | 4.32e6 | 4.38e6 |
| Reph (Regulator of eph expression) | 2 | 3.54e6 | 4.05e6 | 3.97e6 |
| U2af50 (U2 small nuclear riboprotein auxiliary factor 50) | 1 | 3.13e6 | 3.19e6 | 3.34e6 |
| U2af50 (U2 small nuclear riboprotein auxiliary factor 50) | 2 | 3.20e6 | 3.81e6 | 3.72e6 |
| Gba1b (Glucocerebrosidase 1b) | 1 | 3.54e6 | 4.10e6 | 3.95e6 |
| CG10431 | 1 | 3.65e6 | 4.09e6 | 4.18e6 |
| PNKP (Polynucleotide kinase 3'-phosphatase) | 1 | 3.37e6 | 3.82e6 | 3.85e6 |
| Tsf2 (Transferrin 2) | 1 | 3.46e6 | 3.93e6 | 3.92e6 |
| schlank | 1 | 3.65e6 | 4.27e6 | 4.00e6 |
| schlank | 2 | 3.57e6 | 4.22e6 | 3.89e6 |
| fry (furry) | 1 | 3.48e6 | 3.95e6 | 3.96e6 |
| fry (furry) | 2 | 3.45e6 | 3.87e6 | 3.94e6 |
| fry (furry) | 3 | 3.57e6 | 4.12e6 | 3.96e6 |
| fry (furry) | 4 | 3.34e6 | 3.81e6 | 3.82e6 |
| CG15831 (retired record) | 1 | 3.56e6 | 4.01e6 | 4.05e6 |
| CecC (Cecropin C) | 1 | 3.57e6 | 3.99e6 | 4.09e6 |
| Aprt (Adenine phosphoribosyltransferase) | 1 | 3.50e6 | 3.95e6 | 3.99e6 |
| nuf (nuclear fallout) | 1 | 3.57e6 | 4.12e6 | 3.99e6 |
| nuf (nuclear fallout) | 2 | 3.11e6 | 3.76e6 | 3.74e6 |
| nuf (nuclear fallout) | 3 | 3.76e6 | 4.20e6 | 4.31e6 |
| Rtf1 | 1 | 3.26e6 | 4.20e6 | 2.79e6 |
| w (white) | 1 | 3.58e6 | 4.08e6 | 4.03e6 |
| w (white) | 2 | 3.45e6 | 3.97e6 | 3.84e6 |
